In publication PMC7819943, “Rice protein-binding microarrays: a tool to detect cis-acting elements near promoter regions in rice” one finds binding signal data, which are given here for 42 sequences.

By UniProt entry, the sequences of proteins in these tests, tags left out.
UniProt Q0JBA9, entry or part of it: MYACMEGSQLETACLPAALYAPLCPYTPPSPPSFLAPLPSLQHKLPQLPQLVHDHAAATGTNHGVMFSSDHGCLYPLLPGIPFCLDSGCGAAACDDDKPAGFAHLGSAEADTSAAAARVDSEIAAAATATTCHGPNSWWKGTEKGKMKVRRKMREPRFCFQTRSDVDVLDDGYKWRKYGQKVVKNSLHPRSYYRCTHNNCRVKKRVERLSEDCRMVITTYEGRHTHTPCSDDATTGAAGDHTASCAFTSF

The list shows a part of the results.

The assay has as its target OsWRKY34 (Oryza sativa, UniProt Q0JBA9 1-250). Nature of the assay: protein-binding microarray (RPBM); PBS, 2% BSA, 51.3 ng/ul salmon testes DNA, 50 uM zinc acetate, 200 nM TF, 25 C, 1 h; high values mean tight binding. Conditions: protein: recombinant; tags: N-terminal polyhistidine and DsRed monomer fusion (pET32a); label: CyDye5-dUTP incorporated in the synthesized complementary strand; 3' TTTTT single-stranded linker to array surface; dsDNA, one strand shown. Summed up:
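Binding signal is reported as fluorescence intensity per feature (arbitrary units) from an Axon 4000B scanner. Incubation used 200 nM of each Ni–NTA-purified, N-terminally polyhistidine- and DsRed-fused transcription factor from E. coli BL21-CodonPlus on a double-stranded custom Agilent array for 1 h at 25 °C, with 50 µM zinc acetate in the buffer, followed by washing.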
As to “CAGAGCCCGCGACATGCCTTGCCGCACCGCGCCGAGGCGTCGGAGTCACCTAGTGCAG”, the binding signal is 8410 fluorescence intensity (a.u.).
Under “CTCCATCTCCTCCACCAAATCCCCTACTTTTCCCCAATTTCGGAGTCACCTAGTGCAG” stands 8640 fluorescence intensity (a.u.); under “GACGCGACGCGCCCAACCGCGCCCTCGCCTCGCCGCCATGCGGAGTCACCTAGTGCAG”, 9160 fluorescence intensity (a.u.); under “ACCGGTTGGGTCAACCTTTCTATGTACGCTCTTATACACGCGGAGTCACCTAGTGCAG”, 10000 fluorescence intensity (a.u.).
On to “GTGGAGGCGCGGTGGGGTGGGGAAGGAGTGTGTTTCGTGTCGGAGTCACCTAGTGCAG”, for which the binding signal is 15500 fluorescence intensity (a.u.).
For “TTTTTTAGTGTGTTGGCCCAGTCATTTTTGGCCTTTTTTGCGGAGTCACCTAGTGCAG”, the binding signal is 8560 fluorescence intensity (a.u.).
The same measure for “GACATCGCCGCCGGCATCCACCAGCCGCCGCCGCCCGACCCGGAGTCACCTAGTGCAG”: 8640 fluorescence intensity (a.u.).
“CCAGTTGCTCTTCTCTCTTCTCTTTTATTTCATCGAAACACGGAGTCACCTAGTGCAG”: the binding signal was 10400 fluorescence intensity (a.u.).
Regarding “TCTCGCCCGCCTATCCGCCATCCCGAAACGCCGCCGCCTCCGGAGTCACCTAGTGCAG”, the binding signal is 11000 fluorescence intensity (a.u.).
Take “CCATATCTTGCTGTTCTGGTCAGGTTGAGTGTAATACACACGGAGTCACCTAGTGCAG”: the binding signal is 10500 fluorescence intensity (a.u.).
Take “GTGTCAGTGCGTTTATTTAGATCTATAATCAGAATCTTTCCGGAGTCACCTAGTGCAG”: the binding signal was 9470 fluorescence intensity (a.u.).
For the sequence “TCTCTCTTTCTCGGCGAGGATTGGCTGTGTGATTAGAGGTCGGAGTCACCTAGTGCAG”, the binding signal is 8590 fluorescence intensity (a.u.).
Under “TTTCTGACGACGAACGCAGCTGAACACAGTTTTTTTTCTTCGGAGTCACCTAGTGCAG” stands 8470 fluorescence intensity (a.u.).
Under “GCCTTGTACTCCTTCATTATGGATGCTCCTATTTTTTTTCCGGAGTCACCTAGTGCAG” stands 8110 fluorescence intensity (a.u.); under “CTTAATTACGTGTTTAGTGCTTTACTTTGAGTTGGTTCAGCGGAGTCACCTAGTGCAG”, 12100 fluorescence intensity (a.u.).
The same measure for “ATCCGATGTGGCACGCTAAAACTTTACACCCCTGAATCTACGGAGTCACCTAGTGCAG”: 8540 fluorescence intensity (a.u.); for “CTGCCAACTTTATCTCACTCCTTACCATTACAATAACTGACGGAGTCACCTAGTGCAG”: 10800 fluorescence intensity (a.u.).
In the case of “CCAGCTAAGTACTCCACAAACTTGCAAACTAAAACACGCACGGAGTCACCTAGTGCAG”, the binding signal was 8710 fluorescence intensity (a.u.).
Regarding “ACGACCCCTCCAACACATTTCCCTCGCGTCTCGTTGCGATCGGAGTCACCTAGTGCAG”, the binding signal is 8480 fluorescence intensity (a.u.).
Under “CTTCTCTGTTTATAGCTTGTTTCCTTTCAAAGTCCAGTTTCGGAGTCACCTAGTGCAG” stands 9220 fluorescence intensity (a.u.); under “TTATCTAACTGCTCCTTTAATTTCCTCTTCTCTCTCTCTCCGGAGTCACCTAGTGCAG”, 8420 fluorescence intensity (a.u.); under “GGGGAGTAATTTAGTCTTGTGTCGTTTTTGGCTCATTCATCGGAGTCACCTAGTGCAG”, 9340 fluorescence intensity (a.u.).
The same measure for “TTCCCCTTCTCTGTGTCCTCGCTCGCTAATCGCTATAAACCGGAGTCACCTAGTGCAG”: 8110 fluorescence intensity (a.u.); for “CCCGGCCGGGTCGATTTTGGCTTCTGCTCTTCTTCTGGATCGGAGTCACCTAGTGCAG”: 10200 fluorescence intensity (a.u.); for “ATCTTTCACAAAGGCCAACTCTATCATTGGCTGGCGCCGCCGGAGTCACCTAGTGCAG”: 8970 fluorescence intensity (a.u.).
Consider “CGCCACCGTCGGATTTGTTTTGTTTTGAAATTTTATTTTTCGGAGTCACCTAGTGCAG”, for which the binding signal was 8940 fluorescence intensity (a.u.).
Consider “ACTTAGAGTATGTGTTTACAATTTGGATCTTGTATCATCTCGGAGTCACCTAGTGCAG”, for which the binding signal is 8200 fluorescence intensity (a.u.).
For the sequence “GTGCTCTTTAATTATCACTTTGTGCGCACTTTTCTTTGATCGGAGTCACCTAGTGCAG”, the binding signal was 8710 fluorescence intensity (a.u.).
As for “TGGTGGTGTGCTTGGTCTACTTGGAGGTTTAGGCCACTCTCGGAGTCACCTAGTGCAG”, the binding signal was 8970 fluorescence intensity (a.u.).
Under “CAAACTTCTCACACACACGCTGACGCCTGAGTGCTGACCGCGGAGTCACCTAGTGCAG” stands 8350 fluorescence intensity (a.u.); under “CCCATAAGGATGGGCCGTATGTCTTTCACAACTTGGCCTGCGGAGTCACCTAGTGCAG”, 8700 fluorescence intensity (a.u.).
The same measure for “ATCTGTGTTCTTCTCTCAACTTTTCCAAACCTCTCGTCTCCGGAGTCACCTAGTGCAG”: 10800 fluorescence intensity (a.u.); for “CCTTCACTCCTCTCTCATCTTTTCACCCTTTTTCCACATTCGGAGTCACCTAGTGCAG”: 9330 fluorescence intensity (a.u.); for “CGTACGTATCTCTTGTTCTCCTCGCGTCAGCGACCAACGGCGGAGTCACCTAGTGCAG”: 8490 fluorescence intensity (a.u.).
The same measure for “ATAATTATTTGTTTTCAGTCATGTATCTTCATCTTATACACGGAGTCACCTAGTGCAG”: 8610 fluorescence intensity (a.u.); for “ATTAGCTTTCTTTCATTTTCTCCCTCTGCGAGCAGAGGAACGGAGTCACCTAGTGCAG”: 8120 fluorescence intensity (a.u.); for “GCTTGTTGTGGGCTGTGGACTGGGTGTGTGTGTGTGCTTTCGGAGTCACCTAGTGCAG”: 9420 fluorescence intensity (a.u.).
For “ATCTCATCCGAAATTTTTGGCTTTTTGCAAATTTTTGTGACGGAGTCACCTAGTGCAG”, the binding signal is 8430 fluorescence intensity (a.u.).
Take “GTGCTTCTGCTCGGGCTCAAAGTCGTCAGCTTTTTCTGTGCGGAGTCACCTAGTGCAG”: the binding signal was 9650 fluorescence intensity (a.u.).
The same measure for “CCTCGATGTACCTCATTCCTACATTATGGCATTCATGTTCCGGAGTCACCTAGTGCAG”: 12000 fluorescence intensity (a.u.); for “ATTTTTCATTTATAAATATGTCGTTTCGCTTATTCTACAACGGAGTCACCTAGTGCAG”: 8710 fluorescence intensity (a.u.); for “TCAGCCGTCGTAAACTCACCAAACAGAACCCTTATCTCTTCGGAGTCACCTAGTGCAG”: 9560 fluorescence intensity (a.u.).
